According to publication PMC7198045:
These are yes or no findings as the source states them, for the method shown. For part of these data: Binding seen in cells or lysates may run through a third protein. Some entries that bind do so weakly or less than the wild type. Sequences can lack the tags named with a protein. Values belong to the binder of their own block, whether it stands above or below them.

Legend:
[1] = biological target: T1, GST-tagged VRK1-WT (human) (UniProt Q99986); experiment: pull-down; GST or GST-VRK1 bound to glutathione-Sepharose 4B resin incubated with HisSUMO-PKP2; bound proteins by Western blot; both purified
T1 sequence: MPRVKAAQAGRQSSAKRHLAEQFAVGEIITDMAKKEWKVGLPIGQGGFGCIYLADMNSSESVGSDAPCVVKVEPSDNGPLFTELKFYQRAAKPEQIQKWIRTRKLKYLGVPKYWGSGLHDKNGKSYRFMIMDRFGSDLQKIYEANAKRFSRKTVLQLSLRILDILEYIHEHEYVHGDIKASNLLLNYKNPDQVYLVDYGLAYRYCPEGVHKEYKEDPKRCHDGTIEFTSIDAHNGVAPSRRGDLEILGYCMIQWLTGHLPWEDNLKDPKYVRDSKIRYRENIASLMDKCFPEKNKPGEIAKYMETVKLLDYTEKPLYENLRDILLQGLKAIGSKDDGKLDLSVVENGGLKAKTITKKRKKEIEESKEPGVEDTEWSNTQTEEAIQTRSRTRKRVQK

[2] = biological target: T2, GST-tagged VRK1 1–391 mutant (human) (UniProt Q99986); experiment: as above
T2 sequence: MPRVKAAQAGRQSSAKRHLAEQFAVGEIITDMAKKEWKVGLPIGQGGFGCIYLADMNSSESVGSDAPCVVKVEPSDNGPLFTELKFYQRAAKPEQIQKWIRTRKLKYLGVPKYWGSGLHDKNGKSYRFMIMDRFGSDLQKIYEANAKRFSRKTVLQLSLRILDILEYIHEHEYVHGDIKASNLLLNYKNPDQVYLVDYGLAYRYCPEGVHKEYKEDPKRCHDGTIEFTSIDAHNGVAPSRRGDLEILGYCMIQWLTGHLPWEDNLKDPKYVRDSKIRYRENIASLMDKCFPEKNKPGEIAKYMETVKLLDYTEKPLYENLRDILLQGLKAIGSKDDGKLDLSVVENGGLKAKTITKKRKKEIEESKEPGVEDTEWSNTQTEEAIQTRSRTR

[3] = biological target: T3, GFP-tagged full-length VRK1 WT (vaccinia-related kinase 1) (human) (UniProt Q99986); experiment: co-IP; FLAG-PKP2 co-expressed with GFP-VRK1 or GFP in Huh-7 cells, low (40 mg/dl) or high (140 mg/dl) glucose for 3 h; Co-IP buffer (20 mM Tris-HCl pH 7.5, 500 mM NaCl, 0.5 mM EDTA, 10% glycerol); anti-GFP agarose beads; anti-FLAG blot
T3 sequence: T1 sequence

binding [1]: binds | binding [2]: no binding
B1: HisSUMO-PKP2 (His-tagged Plakophilin-2) (protein, UniProt Q99959 1-881)
chain: MAAPGAPAEYGYIRTVLGQQILGQLDSSSLALPSEAKLKLAGSSGRGGQTVKSLRIQEQVQQTLARKGRSSVGNGNLHRTSSVPEYVYNLHLVENDFVGGRSPVPKTYDMLKAGTTATYEGRWGRGTAQYSSQKSVEERSLRHPLRRLEISPDSSPERAHYTHSDYQYSQRSQAGHTLHHQESRRAALLVPPRYARSEIVGVSRAGTTSRQRHFDTYHRQYQHGSVSDTVFDSIPANPALLTYPRPGTSRSMGNLLEKENYLTAGLTVGQVRPLVPLQPVTQNRASRSSWHQSSFHSTRTLREAGPSVAVDSSGRRAHLTVGQAAAGGSGNLLTERSTFTDSQLGNADMEMTLERAVSMLEADHMLPSRISAAATFIQHECFQKSEARKRVNQLRGILKLLQLLKVQNEDVQRAVCGALRNLVFEDNDNKLEVAELNGVPRLLQVLKQTRDLETKKQITDHTVNLRSRNGWPGAVAHACNPSTLGGQGGRITRSGVRDQPDQHGLLWNLSSNDKLKNLMITEALLTLTENIIIPFSGWPEGDYPKANGLLDFDIFYNVTGCLRNMSSAGADGRKAMRRCDGLIDSLVHYVRGTIADYQPDDKATENCVCILHNLSYQLEAELPEKYSQNIYIQNRNIQTDNNKSIGCFGSRSRKVKEQYQDVPMPEEKSNPKGVEWLWHSIVIRMYLSLIAKSVRNYTQEASLGALQNLTAGSGPMPTSVAQTVVQKESGLQHTRKMLHVGDPSVKKTAISLLRNLSRNLSLQNEIAKETLPDLVSIIPDTVPSTDLLIETTASACYTLNNIIQNSYQNARDLLNTGGIQKIMAISAGDAYASNKASKAASVLLYSLWAHTELHHAYKKAQFKKTDFVNSRTAKAYHSLKD

binding [3]: binds
B2: FLAG-tagged PKP2 (Plakophilin-2) (protein, UniProt Q99959 1-881)
chain: B1 chain
